According to publication PMC8050258:
These are yes or no findings as the source states them, for the method shown. Binding seen in cells or lysates may run through a third protein. For part of these data: Tags and fused reporters may be left off the sequences shown.

Chains of the proteins cited; added tags and fusions are not shown.
UniProt Q04206: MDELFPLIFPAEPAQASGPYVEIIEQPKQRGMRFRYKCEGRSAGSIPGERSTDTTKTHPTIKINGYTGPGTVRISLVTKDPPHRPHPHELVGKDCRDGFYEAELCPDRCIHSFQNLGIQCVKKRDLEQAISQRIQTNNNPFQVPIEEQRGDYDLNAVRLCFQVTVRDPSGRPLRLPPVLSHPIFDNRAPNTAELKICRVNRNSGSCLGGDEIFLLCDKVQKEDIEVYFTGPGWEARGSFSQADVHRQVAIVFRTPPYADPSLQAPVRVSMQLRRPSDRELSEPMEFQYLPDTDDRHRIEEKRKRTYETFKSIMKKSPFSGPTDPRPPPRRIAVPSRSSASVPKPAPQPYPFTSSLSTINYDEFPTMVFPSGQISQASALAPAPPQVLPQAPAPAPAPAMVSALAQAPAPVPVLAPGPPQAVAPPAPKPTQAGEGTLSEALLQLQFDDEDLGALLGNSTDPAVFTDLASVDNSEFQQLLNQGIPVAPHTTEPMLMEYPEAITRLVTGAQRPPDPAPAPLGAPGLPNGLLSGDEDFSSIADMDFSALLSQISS

How the values were obtained:
[1] = biological target: His-tagged SELENOW mutant SeCys13C (UniProt P63300); assay: co-IP; called His-tag pull-down: extracts of HEK 293T cells expressing His-tagged SELENOW (wild type or SeCys-13 mutants), RIPA buffer, incubated overnight at 4 °C with anti-His-tag antibody, protein G agarose 3 h at 4 °C, washed three times with RIPA buffer, immunoblotted
[2] = biological target: His-tagged SELENOW mutant SeCys13S (UniProt P63300); assay: as above
[3] = biological target: T1, SELENOW (retrovirally overexpressed in pre-osteoclasts) (UniProt P63300); assay: co-IP; nuclear extracts of pre-osteoclasts (osteoclast precursors infected with SELENOW-overexpressing retrovirus, M-CSF and RANKL for 2 days) immunoprecipitated with antibodies against NFATc1, p65, 14-3-3γ or SELENOW, immunoblotted
T1 sequence (chain, selenocysteine at 13 (SeCys encoded by UGA at codon 13)): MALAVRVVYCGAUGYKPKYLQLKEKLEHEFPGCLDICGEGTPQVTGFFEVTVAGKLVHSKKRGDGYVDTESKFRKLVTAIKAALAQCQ

[4] = biological target: T2, His-tagged SELENOW (SeCys-13) (UniProt P63300); assay: co-IP; called His-tag pull-down: extracts of HEK 293T cells expressing His-tagged SELENOW (wild type or SeCys-13 mutants), RIPA buffer, incubated overnight at 4 °C with anti-His-tag antibody, protein G agarose 3 h at 4 °C, washed three times with RIPA buffer, immunoblotted
T2 sequence (chain, selenocysteine at 13 (SeCys-13)): T1 sequence (chain, selenocysteine at 13 (SeCys encoded by UGA at codon 13))

NF-κB (p65), endogenous in HEK 293T (from UniProt Q04206 1-551)
binding [1]: no binding
binding [2]: no binding

AP-1, endogenous in mouse pre-osteoclasts (complex)
binding [3]: no binding

AP-1, endogenous in HEK 293T (human (endogenous in HEK 293T)) (complex)
binding [4]: no binding

B1: NFATc1, endogenous in HEK 293T (protein, UniProt O95644 1-943)
chain: MPSTSFPVPSKFPLGPAAAVFGRGETLGPAPRAGGTMKSAEEEHYGYASSNVSPALPLPTAHSTLPAPCHNLQTSTPGIIPPADHPSGYGAALDGGPAGYFLSSGHTRPDGAPALESPRIEITSCLGLYHNNNQFFHDVEVEDVLPSSKRSPSTATLSLPSLEAYRDPSCLSPASSLSSRSCNSEASSYESNYSYPYASPQTSPWQSPCVSPKTTDPEEGFPRGLGACTLLGSPRHSPSTSPRASVTEESWLGARSSRPASPCNKRKYSLNGRQPPYSPHHSPTPSPHGSPRVSVTDDSWLGNTTQYTSSAIVAAINALTTDSSLDLGDGVPVKSRKTTLEQPPSVALKVEPVGEDLGSPPPPADFAPEDYSSFQHIRKGGFCDQYLAVPQHPYQWAKPKPLSPTSYMSPTLPALDWQLPSHSGPYELRIEVQPKSHHRAHYETEGSRGAVKASAGGHPIVQLHGYLENEPLMLQLFIGTADDRLLRPHAFYQVHRITGKTVSTTSHEAILSNTKVLEIPLLPENSMRAVIDCAGILKLRNSDIELRKGETDIGRKNTRVRLVFRVHVPQPSGRTLSLQVASNPIECSQRSAQELPLVEKQSTDSYPVVGGKKMVLSGHNFLQDSKVIFVEKAPDGHHVWEMEAKTDRDLCKPNSLVVEIPPFRNQRITSPVHVSFYVCNGKRKRSQYQRFTYLPANVPIIKTEPTDDYEPAPTCGPVSQGLSPLPRPYYSQQLAMPPDPSSCLVAGFPPCPQRSTLMPAAPGVSPKLHDLSPAAYTKGVASPGHCHLGLPQPAGEAPAVQDVPRPVATHPGSPGQPPPALLPQQVSAPPSSSCPPGLEHSLCPSSPSPPLPPATQEPTCLQPCSPACPPATGRPQHLPSTVRRDESPTAGPRLLPEVHEDGSPNLAPIPVTVKREPEELDQLYLDDVNEIIRNDLSSTSTHS
binding [1]: no binding
binding [2]: no binding
